At least one compound was matched to its structure with a doubt left.
Key:
Assay type in all cases: cell-based, human
[1] = test system: BRCA1 sgRNA-infected (BRCA1 sg) cells; experiment: FIN-induced lipid peroxidation and ferroptosis in BRCA1 sgRNA-infected cells
Protocol: Knockout of BRCA1, BRCA2, VDAC3, GPX4, ECAD, 53BP1, and NCOA4 in human cell lines was performed using single guide RNAs (sgRNAs) and the CRISPR-Cas9 expression system as previously described. Briefly, sgRNAs were cloned into the lentiviral LentiGuide vector. The sequences of sgRNAs used in the current study are listed in SEQ ID NOs 1-23. LentiGuide clones were transfected into HEK293T cells with a psPAX2 packaging plasmid and pMD2.G-expressing plasmid. Cells were infected with lentivirus with 0.8 μg/mL polybrene and selected with puromycin (1 μg/mL, InvivoGen) or blasticidin (2 μg/mL, InvivoGen), followed by Western blot analysis to confirm target gene deletion. […]
Viable cells were measured using Cell Counting Kit-8 (CCK-8, Dojindo) as previously described. […] The absorbance at a wavelength of 450 nm was determined using a FLUOstar Omega microplate reader (BMG Labtech). The combination effects were assessed with Bliss independence model and the score is defined as “observed combination effect” minus “expected additive effect”.
Cell death was measured by propidium iodide (Roche) staining using a flow cytometer, as previously described. […] The percentage of the propidium iodide-positive dead cells was determined using the flow cytometer BD Accuri C6 (BD Biosciences) or Attune NXT Flow Cytometer (ThermoFisher) with an FL2 detector. A minimum of 5,000 single cells were analyzed per well. […]

[2] = test system: BRCA1-mutant cancer cells (SUM149, HCC1937); experiment: PARPi+GPX4i combination-induced lipid peroxidation and cell death; conditions: BRCA1-deficient cancer cells
Protocol: Cell death was measured by propidium iodide (Roche) staining using a flow cytometer, as previously described. Briefly, cells were seeded onto 6- or 12-well plates and subsequently treated with indicated agents. For GPX4 knockout cells, ferrostatin-1 was removed from the culture media. Next, cells were collected (including floating dead cells) and stained with 5 μg/mL propidium iodide. The percentage of the propidium iodide-positive dead cells was determined using the flow cytometer BD Accuri C6 (BD Biosciences) or Attune NXT Flow Cytometer (ThermoFisher) with an FL2 detector. A minimum of 5,000 single cells were analyzed per well.
(§1) As previously described C11-BODIPY 581/591 (Invitrogen) was used for lipid peroxidation, MitoPerOx (Abcam) for mitochondrial lipid peroxidation, and CM-H2DCFDA (ThermoFisher) for ROS measurements. Briefly, cells were seeded on 6- or 12-well plates and subsequently treated with indicated agents. After staining with 2.5 μM C11-BODIPY 581/591, 2.5 μM MitoPerOx, or 4 μM CM-H2DCFDA for 20 minutes, cells were analyzed using the flow cytometer BD Accuri C6 (BD Biosciences) or Attune NxT Flow Cytometer (ThermoFisher) with a 488-nm laser on an FL1 detector. A minimum of 5,000 single cells were analyzed per well.

[3] = test system: BRCA2 sgRNA infected HT1080 cells; experiment: FIN sensitivity of BRCA2 sgRNA-infected HT1080 cells; conditions: BRCA2 sg HT1080 versus control
Protocol: (§2) Knockout of BRCA1, BRCA2, VDAC3, GPX4, ECAD, 53BP1, and NCOA4 in human cell lines was performed using single guide RNAs (sgRNAs) and the CRISPR-Cas9 expression system as previously described. Briefly, sgRNAs were cloned into the lentiviral LentiGuide vector. The sequences of sgRNAs used in the current study are listed in SEQ ID NOs 1-23. LentiGuide clones were transfected into HEK293T cells with a psPAX2 packaging plasmid and pMD2.G-expressing plasmid. Cells were infected with lentivirus with 0.8 μg/mL polybrene and selected with puromycin (1 μg/mL, InvivoGen) or blasticidin (2 μg/mL, InvivoGen), followed by Western blot analysis to confirm target gene deletion. To maintain GPX4 knockout cells, we added 1 μM ferrostatin-1 into the media.
Viable cells were measured using Cell Counting Kit-8 (CCK-8, Dojindo) as previously described. Briefly, cells were seeded onto 96-well plates and subsequently treated with indicated agents. Next, cells were exposed to 10 μL of CCK-8 reagent (100 μL of medium per well) for 1 hour at 37° C. with 5% CO2 in an incubator. The absorbance at a wavelength of 450 nm was determined using a FLUOstar Omega microplate reader (BMG Labtech). The combination effects were assessed with Bliss independence model and the score is defined as “observed combination effect” minus “expected additive effect”.

VDAC3-KO cells = experiment: FIN-induced ferroptosis in VDAC3-KO cells
Protocol: as §2
Viable cells were measured using Cell Counting Kit-8 (CCK-8, Dojindo) as previously described. Briefly, cells were seeded onto 96-well plates and subsequently treated with indicated agents. […] The absorbance at a wavelength of 450 nm was determined using a FLUOstar Omega microplate reader (BMG Labtech). The combination effects were assessed with Bliss independence model and the score is defined as “observed combination effect” minus “expected additive effect”.
Cell death was measured by propidium iodide (Roche) staining using a flow cytometer, as previously described. […] The percentage of the propidium iodide-positive dead cells was determined using the flow cytometer BD Accuri C6 (BD Biosciences) or Attune NXT Flow Cytometer (ThermoFisher) with an FL2 detector. A minimum of 5,000 single cells were analyzed per well.
as §1, with “Briefly, cells were seeded on 6- or 12-well plates and subsequently treated with indicated agents.” left out

HT1080 and HEY cells = experiment: Mitochondrial lipid peroxidation (MitoPerOx)
Protocol: as §1

Row | Structure (SMILES) | effect on RSL3-induced cell death in BRCA1 sg cells ([1]; co-treatment with RSL3) | effect on PARP inhibitor-induced lipid peroxidation or PARP inhibitor+GPX4 inhibitor combination-induced ferroptosis [2] | effect of BRCA1 deficiency on the lipid peroxidation and ferroptosis induced by the compound ([1]; BRCA1 sg cells versus control) | effect of BRCA2 depletion on cellular sensitivity to the compound [3] | phenotype of VDAC3-KO cells treated with erastin (VDAC3-KO cells; 2.5 μM erastin) | effect of VDAC3 deletion on the lipid peroxidation, ferroptosis or sensitivity induced by the compound (VDAC3-KO cells; VDAC3 sg cells versus control) | cell death in VDAC3-KO cells (VDAC3-KO cells; very high doses, e.g. 10 μM erastin) | effect of BRCA1 or VDAC3 deficiency on mitochondrial lipid peroxidation induced by the compound (HT1080 and HEY cells)
1 | CC(=O)N(O)CCCCCNC(=O)CCC(=O)N(O)CCCCCNC(=O)CCC(=O)N(O)CCCCCN [DFO, deferoxamine] | abolished | largely abolished |  |  |  |  |  | 
2 | CCOc1ccccc1-n1c(C(C)N2CCN(C(=O)COc3ccc(Cl)cc3)CC2)nc2ccccc2c1=O (centres unmarked) [Erastin] |  |  | dramatically attenuated | did not affect | remarkable resistance | largely abolished | can still induce cell death | largely abolished

Reference: patent publication US20260130924A1, “COMPOSITIONS AND METHODS OF TREATING SUBJECTS WITH BRCA1 MUTATION OR DEFICIENCY” (BOARD OF REGENTS, THE UNIVERSITY OF TEXAS SYSTEM, priority 2022, published 2026)
